Test results reported in PubChem BioAssay AID330 (DTP/NCI, 2004).
The list shows only some results of the screen, not a fair sample: it gathers tests that were run many times, whatever their T/C, doses with no T/C, and many T/C values between a quarter and a half above the control. Further doses and runs are listed elsewhere. T/C is the treated group as % of the vehicle group. Some doses have a count of surviving animals in place of a T/C: the source files T/C as zero there, which appears to mark a toxic dose or a test without result, not a measured value. Some doses without a T/C left all or most animals alive at the check, yet need not have been tolerated: survival well below the control is almost never listed, so the zero probably covers shortened survival too. Counts of survivors are from the toxicity check (mostly the fifth day) where no day follows; animals may have died later. Schedule codes are those of the source, taken here to give the interval after Q, in days (D) or hours (H), and the number of doses after X. Some entries hold several experiments; the results are listed from low to high. For survival time, the PubChem record calls one and a half times the control and up active, and a quarter to a half above the control has no call in these data; cut-offs in other NCI protocols can differ. Some T/C values are followed by the survivors on the day toxicity was checked, most often the fifth; without a count, all were alive then.

Tested on: P388 leukemia ip, CD2F1 mice, survival T/C
Experiment: NCI In Vivo Anticancer Drug Screen. Data for tumor model P388 Leukemia (intraperitoneal) in CD2F1 (CDF1) mice
Details: T/C endpoint: median survival time, higher T/C = longer survival
[1] = dose: 200.0 mg/kg/injection, schedule: Q01DX005 (ip), vehicle: saline
[2] = dose: 25.0 mg/kg/injection, schedule: Q01DX009 (ip), vehicle: saline with Tween-80
[3] = dose: 50.0 mg/kg/injection, schedule: Q01DX009 (ip), vehicle: saline with Tween-80
[4] = dose: 100.0 mg/kg/injection, schedule: Q01DX009 (ip), vehicle: saline with Tween-80
[5] = dose: 200.0 mg/kg/injection, schedule: Q01DX009 (ip), vehicle: saline with Tween-80
[6] = dose: 10.0 mg/kg/injection, schedule: Q01DX009 (ip), vehicle: other

**Q.** Which results are given for `CCCCCC(CN(C)C)C(=O)/C=C/c1ccc(Br)cc1` (stereo not drawn)?
**A.** survivor count (dose: 100.0 mg/kg/injection, schedule: Q01DX005 (ip), vehicle: saline): 0 of 6; survivor count [1]: 0 of 6

**Q.** Which results are given for `CCCCNc1c(OC)ccc2c(C)c3[n+](cc12)CCc1cc(OC)c(OC)cc1-3`?
**A.** survivor count (dose: 50.0 mg/kg/injection, schedule: Q04DX003 (ip), vehicle: water): 0 of 3; survivor count (dose: 100.0 mg/kg/injection, schedule: Q04DX003 (ip), vehicle: water): 0 of 3; survivor count (dose: 200.0 mg/kg/injection, schedule: Q04DX003 (ip), vehicle: water): 0 of 3; survivor count (dose: 400.0 mg/kg/injection, schedule: Q04DX003 (ip), vehicle: water): 0 of 3

**Q.** With `CCOc1c(N=Nc2ccc(O)cc2)c(C)nn1C(N)=S` as the compound, how does the survivor count (dose: 60.0 mg/kg/injection, schedule: Q01DX005 (ip), vehicle: Klucel + Tween-80) read?
**A.** 0 of 6

**Q.** And the survivor count (dose: 120.0 mg/kg/injection, schedule: Q01DX005 (ip), vehicle: Klucel + Tween-80)?
**A.** 0 of 6

**Q.** What about the survivor count (dose: 240.0 mg/kg/injection, schedule: Q01DX005 (ip), vehicle: Klucel + Tween-80) of the same compound?
**A.** 0 of 6

**Q.** Which T/C (dose: 0.06 mg/kg/injection, schedule: Q01DX001 (ip), vehicle: water) does the source give for `CCC1=C[C@H]2CN(CCc3c([nH]c4ccccc34)[C@@](C(=O)OC)(c3cc4c(cc3OC)N(C)[C@H]3[C@@](O)(C(=O)NN)[C@H](O)[C@]5(CC)C=CCN6CC[C@]43[C@@H]65)C2)C1` here?
**A.** 134 % of control

**Q.** And the T/C (dose: 0.13 mg/kg/injection, schedule: Q01DX001 (ip), vehicle: water)?
**A.** 137 % of control

**Q.** And the T/C (dose: 0.25 mg/kg/injection, schedule: Q01DX001 (ip), vehicle: water)?
**A.** 146 % of control

**Q.** What about the survivor count (dose: 4.0 mg/kg/injection, schedule: Q01DX001 (ip), vehicle: water) of the same compound?
**A.** 5 of 6

**Q.** What about the survivor count (dose: 8.0 mg/kg/injection, schedule: Q01DX001 (ip), vehicle: water) of the same compound?
**A.** 2 of 6

**Q.** What about the survivor count (dose: 16.0 mg/kg/injection, schedule: Q01DX001 (ip), vehicle: water) of the same compound?
**A.** 0 of 6

**Q.** What about the survivor count (dose: 32.0 mg/kg/injection, schedule: Q01DX001 (ip), vehicle: water) of the same compound?
**A.** 0 of 6

**Q.** With `C=CC(=O)NCNC(=O)CCBr` as the compound, how does the T/C (dose: 12.5 mg/kg/injection, schedule: Q01DX009 (ip), vehicle: saline with Tween-80) read?
**A.** 127 % of control

**Q.** What about the T/C [2] of the same compound?
**A.** 140 % of control

**Q.** And the T/C [3]?
**A.** 131 % of control

**Q.** And the T/C (dose: 50.0 mg/kg/injection, schedule: Q04DX003 (ip), vehicle: saline with Tween-80)?
**A.** 127 % of control

**Q.** What about the survivor count [4] of the same compound?
**A.** 6 of 6

**Q.** What about the T/C (dose: 100.0 mg/kg/injection, schedule: Q04DX003 (ip), vehicle: saline with Tween-80) of the same compound?
**A.** 127 % of control

**Q.** And the T/C (dose: 132.0 mg/kg/injection, schedule: Q04DX003 (ip), vehicle: saline with Tween-80)?
**A.** 140 % of control

**Q.** And the survivor count [5]?
**A.** 6 of 6

**Q.** And the survivor count (dose: 400.0 mg/kg/injection, schedule: Q04DX003 (ip), vehicle: saline with Tween-80)?
**A.** 6 of 6

**Q.** With `Cc1cccc(C)c1OC(=S)SSC(=S)Oc1c(C)cccc1C` as the compound, how does the survivor count (dose: 400.0 mg/kg/injection, schedule: Q01DX001 (ip), vehicle: Klucel (hydroxypropylcellulose) (HPC)) read?
**A.** 6 of 6

**Q.** What does the source list for `Nc1cc2[nH]cnc2c(=O)[nH]1`?
**A.** T/C [2]: 131 % of control [5 of 6 alive]; T/C [3]: 142 % of control; T/C (dose: 100.0 mg/kg/injection, schedule: Q01DX009 (ip), vehicle: Klucel (hydroxypropylcellulose) (HPC)): 135 % of control; T/C [4]: 136 % of control [5 of 6 alive]; T/C (dose: 100.0 mg/kg/injection, schedule: Q01DX009 (ip), vehicle: suspension in saline): 144 % of control; survivor count (dose: 200.0 mg/kg/injection, schedule: Q01DX009 (ip), vehicle: suspension in saline): 6 of 6; survivor count (dose: 400.0 mg/kg/injection, schedule: Q01DX009 (ip), vehicle: suspension in saline): 4 of 6

**Q.** `CCCCOC(=O)N(CCF)N=O` was tested. Which T/C (dose: 25.0 mg/kg/injection, schedule: Q01DX001 (ip), vehicle: saline with Tween-80) did it give?
**A.** 127 and 135 % of control

**Q.** And the survivor count (dose: 50.0 mg/kg/injection, schedule: Q01DX001 (ip), vehicle: saline with Tween-80)?
**A.** 1 of 6

**Q.** With `CC(=O)Nc1ccc(O)c(O)c1` as the compound, how does the T/C [4] read?
**A.** 126 % of control

**Q.** And the T/C [5]?
**A.** 145 % of control

**Q.** What about the T/C (dose: 400.0 mg/kg/injection, schedule: Q01DX009 (ip), vehicle: saline with Tween-80) of the same compound?
**A.** 148 % of control

**Q.** How did the T/C (dose: 25.0 mg/kg/injection, schedule: Q01DX009 (ip), vehicle: other) turn out when `O=S(=O)(N/N=C/c1ccncc1)c1ccccc1` was run?
**A.** 130 % of control

**Q.** And the T/C (dose: 50.0 mg/kg/injection, schedule: Q01DX009 (ip), vehicle: other)?
**A.** 130 and 134 % of control

**Q.** And the T/C (dose: 100.0 mg/kg/injection, schedule: Q01DX009 (ip), vehicle: other)?
**A.** 138 % of control [5 of 6 alive]

**Q.** And the T/C (dose: 200.0 mg/kg/injection, schedule: Q01DX009 (ip), vehicle: other)?
**A.** 128 and 138 % of control [5 of 6 alive]

**Q.** What about the survivor count (dose: 400.0 mg/kg/injection, schedule: Q01DX009 (ip), vehicle: other) of the same compound?
**A.** 3 of 6 and 4 of 6

**Q.** For `C/C(=N\N=C(/[Se])N1CCCCC1C)c1ccccn1` (stereo not drawn), which survivor count (dose: 50.0 mg/kg/injection, schedule: Q04DX003 (ip), vehicle: Klucel (hydroxypropylcellulose) (HPC)) is on record?
**A.** 6 of 6

**Q.** And the survivor count (dose: 100.0 mg/kg/injection, schedule: Q04DX003 (ip), vehicle: Klucel (hydroxypropylcellulose) (HPC))?
**A.** 6 of 6

**Q.** And the survivor count (dose: 200.0 mg/kg/injection, schedule: Q04DX003 (ip), vehicle: Klucel (hydroxypropylcellulose) (HPC))?
**A.** 5 of 6

**Q.** What about the survivor count (dose: 400.0 mg/kg/injection, schedule: Q04DX003 (ip), vehicle: Klucel (hydroxypropylcellulose) (HPC)) of the same compound?
**A.** 3 of 6

**Q.** Which results are given for `O=C(CC(O)(C(F)(F)F)C(F)(F)F)c1ccco1`?
**A.** T/C [3]: 130 % of control; T/C (dose: 75.0 mg/kg/injection, schedule: Q01DX009 (ip), vehicle: saline with Tween-80): 140 % of control [5 of 6 alive]

**Q.** For `O=NN(CCCl)C(=O)Oc1ccc(OC(=O)N(CCCl)N=O)cc1`, which T/C (dose: 12.5 mg/kg/injection, schedule: Q01DX001 (ip), vehicle: Klucel (hydroxypropylcellulose) (HPC)) is on record?
**A.** 128 % of control

**Q.** What about the T/C (dose: 25.0 mg/kg/injection, schedule: Q01DX001 (ip), vehicle: Klucel (hydroxypropylcellulose) (HPC)) of the same compound?
**A.** 125 and 135 % of control

**Q.** And the survivor count (dose: 100.0 mg/kg/injection, schedule: Q01DX001 (ip), vehicle: Klucel (hydroxypropylcellulose) (HPC))?
**A.** 2 of 6

**Q.** `CC(C)C(N)C(=O)NC(C(=O)O)C(C)C` (stereo not drawn) was tested. Which survivor count (dose: 50.0 mg/kg/injection, schedule: Q01DX005 (ip), vehicle: saline) did it give?
**A.** 5 of 5

**Q.** What about the survivor count [1] of the same compound?
**A.** 5 of 5

**Q.** With `Cc1cc(N=Nc2ccc(-c3ccc(N=Nc4ccc(O)c(C(=O)O)c4)cc3)cc2)c(N)c(N=Nc2ccc(C(=O)Nc3ccc(S(=O)(=O)O)cc3)cc2)c1N` as the compound, how does the survivor count (dose: 50.0 mg/kg/injection, schedule: Q01DX005 (ip), vehicle: saline with Tween-80) read?
**A.** 6 of 6

**Q.** What about the survivor count (dose: 100.0 mg/kg/injection, schedule: Q01DX005 (ip), vehicle: saline with Tween-80) of the same compound?
**A.** 2 of 6

**Q.** What about the survivor count (dose: 200.0 mg/kg/injection, schedule: Q01DX005 (ip), vehicle: saline with Tween-80) of the same compound?
**A.** 0 of 6

**Q.** With `COc1ccc2c3c([nH]c2c1)C(C)=NCC3` as the compound, how does the survivor count [1] read?
**A.** 0 of 6

**Q.** With `c1ccc2c(NCCCCCCCNc3c4ccccc4nc4ccccc34)c3ccccc3nc2c1` as the compound, how does the T/C (dose: 0.63 mg/kg/injection, schedule: Q01DX009 (ip), vehicle: other) read?
**A.** 131 % of control

**Q.** And the T/C (dose: 1.25 mg/kg/injection, schedule: Q01DX009 (ip), vehicle: other)?
**A.** 142, 144, 145 % of control [5 of 6 alive]

**Q.** What about the T/C (dose: 2.5 mg/kg/injection, schedule: Q01DX009 (ip), vehicle: other) of the same compound?
**A.** 140 and 147 % of control

**Q.** What about the T/C (dose: 3.75 mg/kg/injection, schedule: Q01DX009 (ip), vehicle: other) of the same compound?
**A.** 137 % of control

**Q.** And the T/C (dose: 7.5 mg/kg/injection, schedule: Q01DX009 (ip), vehicle: other)?
**A.** 147 % of control

**Q.** And the T/C [6]?
**A.** 128 % of control

**Q.** And the survivor count [6]?
**A.** 6 of 6

**Q.** What about the survivor count (dose: 15.0 mg/kg/injection, schedule: Q01DX009 (ip), vehicle: other) of the same compound?
**A.** 3 of 6

**Q.** And the survivor count (dose: 20.0 mg/kg/injection, schedule: Q01DX009 (ip), vehicle: other)?
**A.** 0 of 6, 2 of 6, 3 of 6

**Q.** Which T/C (dose: 30.0 mg/kg/injection, schedule: Q01DX009 (ip), vehicle: saline with Tween-80) does the source give for `C=C1C(=O)C23C(OC(=O)c4ccc(Br)cc4)C1CCC2C12COC3(O)C(O)C1C(C)(C)CCC2O` (stereo not drawn) here?
**A.** 125 % of control
